According to PubChem BioAssay AID1347423 (Functional Genomics Laboratory (NCATS/FGL), 2020):
About 210 (0.4%) of roughly 52,000 sequences were called active.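 The calls were made as follows: active = gene whose silencing raises cell survival under the drug, median off-target-corrected z-score across its silencing RNAs 2 or more; inactive = the rest.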 The list shows a part of the results.

Experiment: Resistance to Poly (ADP-Ribose) Polymerase inhibitor: Gene Identification via Genome-wide siRNA Screen
Conditions: mouse BRCA2 R2336H ES cells, olaparib, CellTiter-Glo viability; stronger effect = higher value
Procedure, shortened: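 Genome-wide siRNA screen (3 siRNAs/gene, 20 nM) in mouse ES cells carrying hypomorphic BRCA2 R2336H; olaparib 500 nM added 48 h post-transfection, CellTiter-Glo viability 72 h later. Normalized to plate-median negative control; MAD z-scores, gene median, seed-adjusted.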

Row | Sequence | z-score
1 | CCAUGAGUUAGUGUUCGGUTT against Blmh | inactive: 1.1
2 | GCCUGACAGAAUUAUUUGCTT against Trnt1 | inactive: -0.16
3 | GGAAGUGAAUAUUGAGUUUTT against Bccip | inactive: -0.957
4 | GGCUACAAAUCCAACUAUCTT against 4930579J09Rik | inactive: -0.707
5 | GAUCUUCCUGACAGUGGUGTT against Psors1c2 | inactive: -0.37
6 | CGAGAAGGAUAUAAUUGUUTT against AW545966 | inactive: -0.545
7 | GGAAAAAGACCAUCUGUGGTT against Plk3 | inactive: -0.871
8 | CCGUUACAAACCAAGACCUTT against Flt3 | inactive: 0.564
9 | GGAUUUUUGUGCAGAGUUATT against C630028N24Rik | inactive: 1.31
10 | CGAUGUAACAAAUGAGAUUTT against 1700034P14Rik | inactive: -1.23
11 | GGUAAUUGGUAGAACAGUUTT against Olfr837 | inactive: -1.05
12 | GGACUCACCCUGAGAGAUUTT against Abca4 | inactive: -1.14
13 | GGAGUGUAAUCCUCCAUCATT against 0710007A14Rik | inactive: -0.0452
14 | GGGUCAUGUGAGCCAAUUUTT against Tcf20 | inactive: -0.628
15 | GGACCUUUCAUCAACCCAUTT against Olfr676 | inactive: 1
16 | GGAAACCCAAUAUCAAACUTT against Rnf138 | inactive: -0.324
17 | GGUGACCCAGUUGCUGAAUTT against 2310047C17Rik | inactive: 0.198
18 | GCUCUUUUUAACACUCUUATT against Bace1 | inactive: -0.404
19 | GGUGUGAUGCAUCAAGUCATT against Trip12 | inactive: -0.474
20 | CCACCAUUUAUAUUUGGUUTT against Tmem20 | inactive: 0.51
21 | GCGUGAAGGAGCACAGAUUTT against 4933409K07Rik | inactive: -0.899
22 | GGUGGACUUAUAUGGUUUUTT against Siat4a | inactive: 1.46
23 | GGGAUGAGUUCUUGUAAAUTT against Unc50 | inactive: -0.512

Nos. 17 to 21 of the list above:
Row | Sequence | z-score
17 | GGUGACCCAGUUGCUGAAUTT against 2310047C17Rik | inactive: 0.198
18 | GCUCUUUUUAACACUCUUATT against Bace1 | inactive: -0.404
19 | GGUGUGAUGCAUCAAGUCATT against Trip12 | inactive: -0.474
20 | CCACCAUUUAUAUUUGGUUTT against Tmem20 | inactive: 0.51
21 | GCGUGAAGGAGCACAGAUUTT against 4933409K07Rik | inactive: -0.899

Continued.

Row | Sequence | z-score
24 | GGAAAUUACAGAGACAAUUTT against Rbm3 | inactive: 0.0684
25 | GCAUUCCUUUCCAAAAGGATT against Rpl24 | inactive: -2.91
26 | GGUCCUGAAAAUCGCUCAGTT against Ctrb1 | inactive: 2.06
27 | GGAGAAAGCAAAAACUAUATT against D11Moh35 | inactive: -0.442
28 | GCCUAUGAUCUGGUUAGACTT against D5Ertd606e | inactive: 2.74
29 | GGAAGUGAGUUUUUCAGCUTT against Bcl6b | inactive: 3.03
30 | GGAAAGAAACUAAGGAAAATT against Arhgap15 | inactive: 1.33
31 | GGCUGUCAUCUGGACAGAUTT against Slc5a6 | inactive: 2.31
32 | GUACAACUAGACAUUAUGCTT against Hist3h2bb | inactive: 1.17
33 | CCAGGGACAAGAUUUAUCUTT against Pcdhgb4 | inactive: -1.32
34 | CCCUGCUUUCGGAAUUACATT against C030016D13Rik | inactive: -0.592
35 | GGCCAUUAGAAGCAAGAUUTT against 9030611N15Rik | inactive: -1.29
36 | CCUGCUAUACAUUGAACCCTT against Lhcgr | inactive: 0.0786
37 | GGGAAAGAGAUACAAUGACTT against Prlpk | inactive: -0.962
38 | GGGCUUUUAUAACAAAUGUTT against 3110005P07Rik | inactive: 0.486
39 | GGGUUCGAGGAAAAGGAAGTT against BC021611 | inactive: -0.851
40 | GGUGUUGUCUUACAUUAAUTT against Esam1 | inactive: 2.58
41 | GGUGGUUCUUUUAAAGUUUTT against Dlat | inactive: -0.379
42 | CCGAGCUAGAUCAGCUAUUTT against Mertk | inactive: 0.0536
43 | GGAGAUGAUCUUCUGAAAUTT against Klra17 | inactive: 0.495
44 | GGAAAGAGAAAACUUUAGCTT against Nme7 | inactive: -0.469
45 | GGAACUGAACCACUUCAAATT against 2010109I03Rik | inactive: -0.181
46 | GGUGCUAGUGUAUGAAUUATT against 9830109N13Rik | inactive: 2.24

Row | Sequence | z-score
47 | GGAAGAUGUGGCUUGUGUCTT against Ly6d | inactive: -2.03
48 | CCUAUAUGGUACCACACUCTT against Olfr31 | inactive: -0.234
49 | GGACACACAGUGAUCAUAUTT against Fhl1 | inactive: -1.88
50 | CGAUGACUAUUUUUCUUGATT against Sgtb | inactive: 0.355
51 | GGGCGAACACUCCAAAGAATT against 1810011K17Rik | inactive: -0.795
52 | GCCCUUGAAGAUUUGAGGUTT against Cops8 | inactive: -2.49
53 | GCACAAGACUAACAAUACGTT against Spnb3 | inactive: -0.423
54 | GGGUGAAAAGGUUUCUGUCTT against Lactb | inactive: 0.863
55 | GGAAUGUUGGAAUCAAUUGTT against Gcm1 | inactive: 1.58
56 | GUACAAGCCACUGGAUCUGTT against Smad6 | inactive: 1.02
57 | GGCAUGAUAGUGUAAUAACTT against Piga | inactive: 0.496
58 | CGAAAAAUCAGAUUCCUCCTT against Coil | inactive: -0.83
59 | GGACCUAUACCUGAAGCCUTT against Eef2 | inactive: -0.974
60 | GGCCAAUAUGUGCUGGUAUTT against Ihh | inactive: -1.39
61 | GCGAUCCUGACUUGUUCAATT against Jmjd3 | inactive: -0.103
62 | GGAUAAGCUUAUCAGCGUGTT against Stim1 | inactive: 0.342
63 | GGAAAGUUCAGAGGAGAGATT against Batf | inactive: -0.17
64 | CCGUGUCUUAGGUGAUCACTT against H2-DMb1 | inactive: -1.08
65 | GGUUCCGAUUCUGUGGCAGTT against Chrm5 | inactive: 1.18
66 | GCUUUAUAAUCGGCUCUCCTT against Zdhhc6 | inactive: -0.231
67 | GCUAAUUUGACAAAGACGGTT against Bfsp2 | inactive: 1.26
